Results from the supplement of paper PMC10849652.
The other results are listed elsewhere or left out.

Amino acid sequences for entries named in this document (tags omitted). A change or cut given only in a name is not applied to a line headed by its entry.
UniProt O75896: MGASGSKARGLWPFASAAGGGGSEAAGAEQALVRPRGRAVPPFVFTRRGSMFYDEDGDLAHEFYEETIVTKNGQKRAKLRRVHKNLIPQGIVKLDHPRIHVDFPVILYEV
UniProt Q9H0U9: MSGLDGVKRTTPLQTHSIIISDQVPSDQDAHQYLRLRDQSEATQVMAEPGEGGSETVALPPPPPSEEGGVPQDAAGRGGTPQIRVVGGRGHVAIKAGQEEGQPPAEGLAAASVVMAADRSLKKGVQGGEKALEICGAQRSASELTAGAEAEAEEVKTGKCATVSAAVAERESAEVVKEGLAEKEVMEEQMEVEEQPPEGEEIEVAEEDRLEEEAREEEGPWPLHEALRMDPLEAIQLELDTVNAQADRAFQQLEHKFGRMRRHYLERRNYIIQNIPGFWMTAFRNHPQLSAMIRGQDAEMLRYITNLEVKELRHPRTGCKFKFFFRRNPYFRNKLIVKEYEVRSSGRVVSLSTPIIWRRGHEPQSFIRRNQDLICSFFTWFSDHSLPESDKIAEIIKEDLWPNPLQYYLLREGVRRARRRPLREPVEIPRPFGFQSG
UniProt Q96N46: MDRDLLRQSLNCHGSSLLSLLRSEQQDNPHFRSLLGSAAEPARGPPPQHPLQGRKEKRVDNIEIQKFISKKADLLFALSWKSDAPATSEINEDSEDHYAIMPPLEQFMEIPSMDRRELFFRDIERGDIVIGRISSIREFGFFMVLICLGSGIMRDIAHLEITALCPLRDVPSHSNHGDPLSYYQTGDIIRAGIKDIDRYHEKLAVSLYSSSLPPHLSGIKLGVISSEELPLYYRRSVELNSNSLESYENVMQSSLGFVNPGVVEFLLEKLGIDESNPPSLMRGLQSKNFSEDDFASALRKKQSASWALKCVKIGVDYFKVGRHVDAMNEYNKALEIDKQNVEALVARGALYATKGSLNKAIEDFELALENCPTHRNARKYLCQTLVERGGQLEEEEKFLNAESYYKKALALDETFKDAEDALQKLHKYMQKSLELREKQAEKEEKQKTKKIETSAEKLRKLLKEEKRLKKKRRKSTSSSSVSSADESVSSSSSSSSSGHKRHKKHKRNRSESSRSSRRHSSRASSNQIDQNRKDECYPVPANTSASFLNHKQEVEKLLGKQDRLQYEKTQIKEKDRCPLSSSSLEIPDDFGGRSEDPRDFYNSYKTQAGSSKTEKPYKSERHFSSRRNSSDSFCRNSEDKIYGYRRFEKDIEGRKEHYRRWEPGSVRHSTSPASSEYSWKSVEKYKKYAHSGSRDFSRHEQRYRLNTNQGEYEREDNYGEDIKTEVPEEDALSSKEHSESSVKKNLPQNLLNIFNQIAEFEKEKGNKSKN
UniProt Q3B726, whole entry, looked up: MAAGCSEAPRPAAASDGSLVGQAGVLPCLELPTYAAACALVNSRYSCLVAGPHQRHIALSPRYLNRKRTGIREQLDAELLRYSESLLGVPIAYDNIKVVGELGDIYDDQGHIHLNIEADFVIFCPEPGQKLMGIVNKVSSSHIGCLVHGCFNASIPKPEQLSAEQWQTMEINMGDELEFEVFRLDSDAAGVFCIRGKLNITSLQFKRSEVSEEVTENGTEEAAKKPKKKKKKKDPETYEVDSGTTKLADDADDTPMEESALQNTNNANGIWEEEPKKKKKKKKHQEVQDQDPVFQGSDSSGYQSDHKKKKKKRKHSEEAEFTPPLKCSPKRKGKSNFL
UniProt O95857: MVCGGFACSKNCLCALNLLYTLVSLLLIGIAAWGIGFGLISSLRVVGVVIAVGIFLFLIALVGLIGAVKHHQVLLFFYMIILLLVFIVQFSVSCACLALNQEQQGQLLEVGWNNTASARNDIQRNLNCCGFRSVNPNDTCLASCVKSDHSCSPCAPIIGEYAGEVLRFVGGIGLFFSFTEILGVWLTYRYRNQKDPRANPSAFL
UniProt Q6PGP7, whole entry, looked up: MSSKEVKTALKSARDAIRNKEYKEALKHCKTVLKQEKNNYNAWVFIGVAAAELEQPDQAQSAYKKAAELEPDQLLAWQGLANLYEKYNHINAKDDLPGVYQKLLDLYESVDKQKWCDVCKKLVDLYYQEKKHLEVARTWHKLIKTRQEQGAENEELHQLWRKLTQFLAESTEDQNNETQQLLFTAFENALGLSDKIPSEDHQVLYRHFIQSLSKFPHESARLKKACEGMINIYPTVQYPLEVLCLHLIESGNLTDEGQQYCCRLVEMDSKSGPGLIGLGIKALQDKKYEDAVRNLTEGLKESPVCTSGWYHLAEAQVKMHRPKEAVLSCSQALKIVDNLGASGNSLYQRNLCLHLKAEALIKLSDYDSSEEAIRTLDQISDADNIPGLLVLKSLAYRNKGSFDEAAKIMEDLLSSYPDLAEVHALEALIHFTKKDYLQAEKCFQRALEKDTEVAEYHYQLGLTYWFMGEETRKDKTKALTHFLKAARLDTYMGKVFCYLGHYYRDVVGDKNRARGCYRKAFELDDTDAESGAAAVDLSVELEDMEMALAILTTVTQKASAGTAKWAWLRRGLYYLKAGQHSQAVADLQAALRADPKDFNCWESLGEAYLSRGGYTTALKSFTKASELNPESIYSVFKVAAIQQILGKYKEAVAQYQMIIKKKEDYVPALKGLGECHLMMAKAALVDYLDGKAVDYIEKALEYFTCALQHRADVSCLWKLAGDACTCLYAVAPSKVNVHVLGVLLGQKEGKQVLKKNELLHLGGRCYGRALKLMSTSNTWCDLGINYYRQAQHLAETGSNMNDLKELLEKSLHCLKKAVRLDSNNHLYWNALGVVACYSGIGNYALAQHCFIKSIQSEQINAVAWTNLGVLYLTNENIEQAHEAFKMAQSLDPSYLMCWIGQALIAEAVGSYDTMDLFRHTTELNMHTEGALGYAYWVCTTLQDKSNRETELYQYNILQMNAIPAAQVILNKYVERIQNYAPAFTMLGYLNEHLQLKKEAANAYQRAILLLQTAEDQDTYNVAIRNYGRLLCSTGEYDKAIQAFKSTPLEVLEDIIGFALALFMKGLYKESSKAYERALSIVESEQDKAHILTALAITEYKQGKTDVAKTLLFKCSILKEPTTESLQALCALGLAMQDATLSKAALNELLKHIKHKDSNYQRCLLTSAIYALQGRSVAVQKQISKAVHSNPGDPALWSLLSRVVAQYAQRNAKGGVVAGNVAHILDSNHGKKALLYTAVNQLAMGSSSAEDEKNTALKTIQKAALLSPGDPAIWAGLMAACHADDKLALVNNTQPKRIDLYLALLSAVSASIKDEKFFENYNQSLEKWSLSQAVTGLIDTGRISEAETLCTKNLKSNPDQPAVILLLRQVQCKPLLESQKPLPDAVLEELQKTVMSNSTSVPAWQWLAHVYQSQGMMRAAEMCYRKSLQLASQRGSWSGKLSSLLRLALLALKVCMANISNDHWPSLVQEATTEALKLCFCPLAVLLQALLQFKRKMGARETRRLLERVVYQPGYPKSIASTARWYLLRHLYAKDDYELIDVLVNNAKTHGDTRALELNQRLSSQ
UniProt Q96RT7, whole entry, looked up: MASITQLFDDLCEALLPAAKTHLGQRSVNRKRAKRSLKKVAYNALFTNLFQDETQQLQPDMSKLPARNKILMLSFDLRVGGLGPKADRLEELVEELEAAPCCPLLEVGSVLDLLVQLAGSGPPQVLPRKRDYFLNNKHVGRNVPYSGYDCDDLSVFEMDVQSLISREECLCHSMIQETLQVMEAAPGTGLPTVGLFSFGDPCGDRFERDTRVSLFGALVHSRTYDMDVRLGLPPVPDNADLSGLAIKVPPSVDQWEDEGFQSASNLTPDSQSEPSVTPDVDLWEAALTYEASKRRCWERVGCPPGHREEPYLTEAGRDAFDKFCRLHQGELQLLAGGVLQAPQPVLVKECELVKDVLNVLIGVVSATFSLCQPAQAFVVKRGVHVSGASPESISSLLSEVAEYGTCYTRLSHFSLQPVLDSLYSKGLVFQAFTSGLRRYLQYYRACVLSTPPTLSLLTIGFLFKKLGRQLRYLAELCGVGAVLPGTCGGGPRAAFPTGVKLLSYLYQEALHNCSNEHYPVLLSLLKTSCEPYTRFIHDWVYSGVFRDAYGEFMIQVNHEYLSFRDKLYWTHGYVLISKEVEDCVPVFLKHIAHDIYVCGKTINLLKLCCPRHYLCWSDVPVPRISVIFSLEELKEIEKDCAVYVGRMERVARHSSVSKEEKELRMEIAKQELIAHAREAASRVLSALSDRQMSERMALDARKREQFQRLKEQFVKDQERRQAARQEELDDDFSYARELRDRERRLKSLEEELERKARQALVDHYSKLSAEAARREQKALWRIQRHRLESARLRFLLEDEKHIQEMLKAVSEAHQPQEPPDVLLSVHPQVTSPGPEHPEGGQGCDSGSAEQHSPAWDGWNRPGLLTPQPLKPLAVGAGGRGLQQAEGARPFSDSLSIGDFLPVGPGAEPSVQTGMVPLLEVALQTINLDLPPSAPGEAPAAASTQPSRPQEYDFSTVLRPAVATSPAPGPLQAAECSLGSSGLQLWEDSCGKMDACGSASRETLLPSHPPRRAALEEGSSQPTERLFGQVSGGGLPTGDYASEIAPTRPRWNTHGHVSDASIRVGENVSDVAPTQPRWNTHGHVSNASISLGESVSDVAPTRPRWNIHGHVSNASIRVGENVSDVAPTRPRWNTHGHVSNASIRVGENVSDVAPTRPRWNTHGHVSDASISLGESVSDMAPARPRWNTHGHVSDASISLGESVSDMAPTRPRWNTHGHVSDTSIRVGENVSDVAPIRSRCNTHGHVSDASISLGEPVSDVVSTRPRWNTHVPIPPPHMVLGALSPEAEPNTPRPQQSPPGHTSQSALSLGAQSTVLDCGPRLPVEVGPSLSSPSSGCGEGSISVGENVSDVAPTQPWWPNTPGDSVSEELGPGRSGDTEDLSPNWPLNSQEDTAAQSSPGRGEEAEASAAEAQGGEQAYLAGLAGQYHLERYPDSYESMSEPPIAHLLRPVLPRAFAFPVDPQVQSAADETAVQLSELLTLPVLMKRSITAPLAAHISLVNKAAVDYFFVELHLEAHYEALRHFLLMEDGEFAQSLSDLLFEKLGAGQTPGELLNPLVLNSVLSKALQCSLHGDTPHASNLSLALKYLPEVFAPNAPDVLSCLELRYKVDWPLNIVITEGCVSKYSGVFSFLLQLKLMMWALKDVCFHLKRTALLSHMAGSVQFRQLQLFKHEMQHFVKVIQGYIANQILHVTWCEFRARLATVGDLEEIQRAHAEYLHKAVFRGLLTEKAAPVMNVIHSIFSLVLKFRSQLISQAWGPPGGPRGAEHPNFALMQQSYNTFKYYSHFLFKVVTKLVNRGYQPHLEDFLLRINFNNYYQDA
UniProt Q8N0Z6: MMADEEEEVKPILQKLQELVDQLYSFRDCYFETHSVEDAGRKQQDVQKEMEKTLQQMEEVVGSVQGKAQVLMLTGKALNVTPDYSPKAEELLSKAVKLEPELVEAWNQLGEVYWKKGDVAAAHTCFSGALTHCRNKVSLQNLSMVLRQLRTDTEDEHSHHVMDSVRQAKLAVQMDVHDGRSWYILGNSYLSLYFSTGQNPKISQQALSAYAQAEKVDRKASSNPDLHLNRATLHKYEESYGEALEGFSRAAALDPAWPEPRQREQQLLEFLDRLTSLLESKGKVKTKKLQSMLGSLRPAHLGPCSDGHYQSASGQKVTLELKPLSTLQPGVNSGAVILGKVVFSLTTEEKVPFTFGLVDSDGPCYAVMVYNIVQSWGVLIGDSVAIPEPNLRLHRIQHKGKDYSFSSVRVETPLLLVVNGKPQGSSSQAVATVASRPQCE
UniProt Q16881, whole entry, looked up: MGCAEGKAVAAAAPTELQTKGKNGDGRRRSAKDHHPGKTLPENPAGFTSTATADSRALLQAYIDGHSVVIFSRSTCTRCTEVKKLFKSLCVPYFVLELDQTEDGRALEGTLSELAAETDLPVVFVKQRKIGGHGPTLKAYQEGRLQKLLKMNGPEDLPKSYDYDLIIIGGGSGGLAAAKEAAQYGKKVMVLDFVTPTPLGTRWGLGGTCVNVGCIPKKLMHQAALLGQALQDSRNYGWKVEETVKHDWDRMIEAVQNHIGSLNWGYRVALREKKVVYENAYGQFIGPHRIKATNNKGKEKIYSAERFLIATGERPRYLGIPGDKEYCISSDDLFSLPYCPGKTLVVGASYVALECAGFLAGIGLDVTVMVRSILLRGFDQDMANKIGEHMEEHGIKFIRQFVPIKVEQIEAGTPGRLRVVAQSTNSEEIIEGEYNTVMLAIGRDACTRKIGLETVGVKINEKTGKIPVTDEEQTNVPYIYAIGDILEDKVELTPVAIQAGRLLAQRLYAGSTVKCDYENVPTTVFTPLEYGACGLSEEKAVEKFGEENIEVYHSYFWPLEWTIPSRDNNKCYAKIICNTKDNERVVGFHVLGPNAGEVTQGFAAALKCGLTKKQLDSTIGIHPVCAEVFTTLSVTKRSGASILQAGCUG
UniProt O14817: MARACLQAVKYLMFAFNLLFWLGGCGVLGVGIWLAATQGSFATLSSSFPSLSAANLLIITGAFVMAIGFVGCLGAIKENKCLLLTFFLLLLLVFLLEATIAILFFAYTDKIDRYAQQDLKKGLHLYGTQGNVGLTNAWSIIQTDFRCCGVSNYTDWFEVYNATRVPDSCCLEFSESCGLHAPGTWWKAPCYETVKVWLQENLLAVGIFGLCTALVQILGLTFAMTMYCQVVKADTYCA

Legend:
Test in all cases: log2 fold change, soluble protein after heating vs DMSO (PISA); higher = thermal stabilisation; K562 cells, 10 uM, 30 min; active = over 0.2 and 3.5 SD of the protein, either way, in both replicates (recomputed)
[1] = compound: COC1=CC=C(C=C1)CN2C=CC3=C2C=C(C=C3)C(=O)NO
Procedure, shortened: (§1)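 K562 cells (2×10^6 cells/mL) were treated with 10 μM compound for 30 min, and aliquots were heated for 3 min over 48°C-58°C. Pooled aliquots were extracted in PBS with 0.5% NP-40 at 4°C, and the supernatant after 21,000xg for 90 min was measured by TMTpro 16plex LC-MS/MS with channel sums equalised. Reported thermal stability, relative to control samples and from duplicates, is a log2 fold change.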

filanesib = compound: CON(C)C(=O)N1N=C(c2cc(F)ccc2F)S[C@@]1(CCCN)c1ccccc1 [filanesib]
Procedure, shortened: as §1

gefitinib = compound: COc1cc2ncnc(Nc3ccc(F)c(Cl)c3)c2cc1OCCCN1CCOCC1 [gefitinib]
Procedure, shortened: as §1

[2] = compound: COc1cc2nc(-c3cc(F)ccc3O)nc(N[C@@H]3CNC[C@H]3C(C)(C)O)c2cc1OC
Procedure, shortened: as §1

lapatinib = compound: CS(=O)(=O)CCNCc1ccc(-c2ccc3ncnc(Nc4ccc(OCc5cccc(F)c5)c(Cl)c4)c3c2)o1 [lapatinib]
Procedure, shortened: as §1

pictilisib = compound: CS(=O)(=O)N1CCN(Cc2cc3nc(-c4cccc5[nH]ncc45)nc(N4CCOCC4)c3s2)CC1 [pictilisib]
Procedure, shortened: as §1

zotarolimus = compound: CO[C@H]1C[C@@H]2CC[C@@H](C)[C@@](O)(O2)C(=O)C(=O)N2CCCC[C@H]2C(=O)O[C@H]([C@H](C)C[C@@H]2CC[C@H](n3cnnn3)[C@H](OC)C2)CC(=O)[C@H](C)/C=C(\C)[C@@H](O)[C@@H](OC)C(=O)[C@H](C)C[C@H](C)/C=C/C=C/C=C/1C [zotarolimus]
Procedure, shortened: as §1

alisertib = compound: COc1cc(Nc2ncc3c(n2)-c2ccc(Cl)cc2C(c2c(F)cccc2OC)=NC3)ccc1C(=O)O [alisertib]
Procedure, shortened: as §1

[3] = compound: COc1cccc2cc(-c3nc([C@H]4CC[C@H](C(=O)O)CC4)n4ncnc(N)c34)[nH]c12
Procedure, shortened: as §1

idasanutlin = compound: COc1cc(C(=O)O)ccc1NC(=O)[C@@H]1N[C@@H](CC(C)(C)C)[C@](C#N)(c2ccc(Cl)cc2F)[C@H]1c1cccc(Cl)c1F [idasanutlin]
Procedure, shortened: as §1

Measured: log2 fold change

TYRO3 (UniProt Q06418)
inactive: [1] -0.053 | filanesib -0.045 | gefitinib 0.048

TTC17 isoform 2 (UniProt Q96AE7)
inactive: [1] -0.037 | [2] 0.134 | lapatinib 0.008 | pictilisib -0.02

TTC12 isoform 2 (UniProt Q9H892)
inactive: [1] -0.393 | filanesib 0.473 | zotarolimus -0.224 | alisertib 0.022 | gefitinib -0.04 | [3] 0.085

Two neighbouring records out of the list so far, quoted:
TYRO3 (UniProt Q06418)
inactive: [1] -0.053 | filanesib -0.045 | gefitinib 0.048

TTC17 isoform 2 (UniProt Q96AE7)
inactive: [1] -0.037 | [2] 0.134 | lapatinib 0.008 | pictilisib -0.02

(next part)

TUBGCP4 (UniProt Q9UGJ1)
inactive: [1] -0.181 | filanesib 0.672 | zotarolimus -0.044 | idasanutlin 0.113 | [2] 0.03 | lapatinib 0.086

UBE2K (UniProt D6RDM7)
inactive: [1] -0.251 | filanesib 0.078 | zotarolimus -0.273 | [2] 0.162 | gefitinib 0.082 | lapatinib -0.167

U2AF1L5 (UniProt P0DN76)
inactive: [1] -0.034 | idasanutlin -0.051 | alisertib -0.517 | gefitinib -0.048 | [3] -0.238

TTR (UniProt P02766)
inactive: idasanutlin -0.176 | alisertib -0.28 | [3] -0.034

TYW5 (UniProt A2RUC4)
inactive: idasanutlin -0.002 | alisertib 0.068 | [2] -0.045 | [3] -0.036 | lapatinib -0.066 | pictilisib 0.13

TUSC2 (UniProt O75896)
inactive: [1] 0.081 | filanesib -0.05 | alisertib -0.186 | gefitinib -0.1 | [3] 0.281

TUBD1 (UniProt Q9UJT1)
inactive: [1] -0.104 | filanesib -0.014 | idasanutlin 0.156 | [2] 0.335 | lapatinib -0.186

TSPYL1 (UniProt Q9H0U9)
inactive: zotarolimus 0.102 | idasanutlin -0.034 | [2] -0.08 | gefitinib 0.157 | lapatinib 0.103

TVP23C (UniProt Q96ET8)
inactive: zotarolimus -0.006 | idasanutlin -0.124 | alisertib 0.007 | [2] -0.024 | [3] 0.235 | lapatinib -0.14 | pictilisib -0.029

TTC13 (UniProt Q8NBP0)
inactive: [1] -0.203 | filanesib 0.26 | zotarolimus 0.057 | idasanutlin -0.058 | pictilisib 0.054

TTC21B (UniProt Q7Z4L5)
inactive: [2] 0.258 | lapatinib -0.177

TTC14 (UniProt Q96N46)
inactive: filanesib -0.077 | zotarolimus 0.006

TWNK (UniProt Q96RR1)
inactive: idasanutlin -0.156 | gefitinib -0.094

TTPAL (UniProt Q9BTX7)
inactive: [1] 0.019 | filanesib 0.044 | zotarolimus 0.095 | idasanutlin -0.032 | [2] 0.058 | gefitinib -0.176 | lapatinib 0.035 | pictilisib 0.082

TUBGCP5 (UniProt Q96RT8)
inactive: [1] -0.104 | zotarolimus 0.064 | [2] 0.073 | gefitinib 0.109 | lapatinib -0.032 | pictilisib -0.083

UBE2E1 (UniProt P51965)
inactive: [1] 0.054 | filanesib -0.113 | idasanutlin -0.185 | alisertib -0.19 | [2] 0.033 | gefitinib -0.017 | [3] 0.288 | lapatinib 0.036 | pictilisib 0.053

UBE2D1 (UniProt P51668)
inactive: filanesib -0.003 | zotarolimus -0.006 | idasanutlin -0.083 | alisertib 0.094 | [2] 0.137 | gefitinib -0.012 | [3] 0.002 | lapatinib -0.063 | pictilisib 0.021

TWISTNB (UniProt Q3B726)
inactive: filanesib 0.007 | zotarolimus 0.138 | alisertib -0.148 | [2] -0.027 | [3] -0.103 | lapatinib -0.007 | pictilisib -0.069

TSPAN13 (UniProt O95857)
inactive: filanesib -0.041 | zotarolimus 0.022 | alisertib -0.164 | [2] -0.013 | gefitinib 0.047 | [3] -0.064 | lapatinib -0.053 | pictilisib 0.053

TTC37 (UniProt Q6PGP7)
inactive: [1] -0.898 | idasanutlin -0.056

TSPAN17 isoform 4 (UniProt Q96FV3)
inactive: filanesib -0.023

TXNDC2 (UniProt Q86VQ3)
inactive: filanesib -0.117 | idasanutlin -0.029 | [2] 0.001 | gefitinib -0.09 | lapatinib -0.037

UBE2L5, A0A1B0GUS4
inactive: zotarolimus -0.533

TUBGCP6 (UniProt Q96RT7)
inactive: [1] -0.111 | idasanutlin -0.207

TYK2 (UniProt P29597)
inactive: filanesib 0.062 | [2] 0.007 | lapatinib 0.052

UBE2J2 isoform 3 (UniProt Q8N2K1)
inactive: filanesib 0.146 | zotarolimus -0.031 | idasanutlin 0.092 | [2] 0.134 | lapatinib -0.07 | pictilisib -0.145

TUBB8 (UniProt Q3ZCM7)
inactive: [1] 0.073 | filanesib -0.005 | gefitinib 0.006

TSKU (UniProt Q8WUA8)
inactive: zotarolimus -0.071 | [2] 0.204 | lapatinib 0.046

TTC5 (UniProt Q8N0Z6)
inactive: filanesib -0.009

TUBB8B (UniProt A6NNZ2)
inactive: [1] 0.005 | filanesib -0.109 | zotarolimus -0.061 | alisertib -0.076 | gefitinib 0.004 | [3] 0.107

TUBA4A (UniProt C9JJQ8)
inactive: [1] 0.083 | filanesib 0.016 | zotarolimus -0.041 | [2] 0.052 | lapatinib 0.018

TUT4 (UniProt Q5TAX3)
inactive: [1] -0.265 | filanesib 0.092 | zotarolimus -0.237 | alisertib -0.02 | [2] 0.158 | gefitinib 0.051 | [3] -0.025 | lapatinib 0.021 | pictilisib 0.009

TUT7 (UniProt Q5VYS8)
inactive: [1] -0.151 | filanesib 0.592 | zotarolimus -0.203 | idasanutlin -0.09 | gefitinib -0.218 | pictilisib 0.07

TXNRD1 isoform 7 (UniProt Q16881)
inactive: filanesib -0.034 | [2] 0.242 | lapatinib -0.07 | pictilisib 0.037

TSPAN4 (UniProt O14817)
inactive: alisertib -0.087 | [3] 0.095

UBE2L6 (UniProt O14933)
inactive: idasanutlin 0.194

UBAP2L (UniProt F8W726)
inactive: alisertib -0.074 | [2] -0.069 | gefitinib -0.012 | [3] -0.084 | lapatinib 0.067 | pictilisib 0.078
